Results on 42 sequences are retold here after paper PMC7819943, “Rice protein-binding microarrays: a tool to detect cis-acting elements near promoter regions in rice”.

The chains behind the UniProt entries cited, without tags or fusion partners.
UniProt Q0JBA9, entry or part of it: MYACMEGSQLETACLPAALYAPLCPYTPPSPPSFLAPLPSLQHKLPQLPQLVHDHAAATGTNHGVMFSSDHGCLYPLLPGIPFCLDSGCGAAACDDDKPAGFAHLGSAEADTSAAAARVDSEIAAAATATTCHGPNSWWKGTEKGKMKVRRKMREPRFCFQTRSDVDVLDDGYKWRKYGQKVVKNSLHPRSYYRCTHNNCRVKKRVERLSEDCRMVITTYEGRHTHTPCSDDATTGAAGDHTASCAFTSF

The other results are listed elsewhere or left out.

The assay deals with OsWRKY34 (Oryza sativa, UniProt Q0JBA9 1-250). As to the kind of experiment: protein-binding microarray (RPBM); PBS, 2% BSA, 51.3 ng/ul salmon testes DNA, 50 uM zinc acetate, 200 nM TF, 25 C, 1 h; high values mean tight binding. To be noted: protein: recombinant; tags: N-terminal polyhistidine and DsRed monomer fusion (pET32a); label: CyDye5-dUTP incorporated in the synthesized complementary strand; 3' TTTTT single-stranded linker to array surface; dsDNA, one strand shown. The method, boiled down:
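An Axon 4000B scanner gave the binding signal as per-feature fluorescence intensity in arbitrary units. This followed washing of a custom Agilent array that had been incubated for 1 h at 25 °C with 200 nM protein in PBS, 2% BSA, salmon testes DNA and 50 µM zinc acetate. The proteins were transcription factors fused at the N-terminus to polyhistidine and DsRed, expressed in E. coli BL21-CodonPlus and purified on Ni–NTA.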
With “AACTCTGATACGATGTGATATGCTGGATCGGGGAGGGGCGCGGAGTCACCTAGTGCAG”, the binding signal is 15000 fluorescence intensity (a.u.). Regarding “TGTTGATAAAGGCTTCGATGCTGCACACGACCTTTCTTCTCGGAGTCACCTAGTGCAG”, the binding signal is 9170 fluorescence intensity (a.u.).

In the case of “CTCCTACTCATCATCATCGTCTTCTTCTTCTTGCCCAACTCGGAGTCACCTAGTGCAG”, the binding signal was 12100 fluorescence intensity (a.u.). Take “CACAGCCACAGAAGACCCAAAGATGCGATTTTTTTTCTTCCGGAGTCACCTAGTGCAG”: the binding signal is 9330 fluorescence intensity (a.u.). As for “TATTCTGCACAACACTCTGAATCACTCATCACTCACTAGTCGGAGTCACCTAGTGCAG”, the binding signal is 8192 fluorescence intensity (a.u.).

“CCGTAGCCGACTCGTCCTCGTCTTCCAGCTCAGCTGCAGCCGGAGTCACCTAGTGCAG”: the binding signal was 8470 fluorescence intensity (a.u.). With “GTCGATCCGCGGTTTCTCGAAGACGTTGTTGTGGTCTCATCGGAGTCACCTAGTGCAG” the figure was 9290 fluorescence intensity (a.u.); with “TACCTGTTTGTTTTTAAGTTCAGATATTATATTACGTAACCGGAGTCACCTAGTGCAG”, 8930 fluorescence intensity (a.u.); with “GTTCCTCTCGCGCCTCACCACCGAATCACCCTTTTGCCTTCGGAGTCACCTAGTGCAG”, 8990 fluorescence intensity (a.u.). Consider “TGGCTCTTGCATCTCCACACACACACACACATTCAATTCACGGAGTCACCTAGTGCAG”, for which the binding signal is 9880 fluorescence intensity (a.u.).

As to “GCTTTCTTGTCAAAACAGATCATGCCTTTTGTTTGTTCCACGGAGTCACCTAGTGCAG”, the binding signal was 9160 fluorescence intensity (a.u.). Take “ATGTCACGGTCATTTTTACTTCTTTACCGGCTGGGATAAGCGGAGTCACCTAGTGCAG”: the binding signal was 9070 fluorescence intensity (a.u.). “GGTTGCTGTGGTTGGCGAGGTGGGGTGGGGCTTGGAGTAACGGAGTCACCTAGTGCAG”: the binding signal was 27400 fluorescence intensity (a.u.). Regarding “GAAAGCCATTCTTCTTTATGCTCAGCTGTCGGATTTGCCTCGGAGTCACCTAGTGCAG”, the binding signal was 9010 fluorescence intensity (a.u.). As for “GAGTTTGCTATGGTACCTGCTCTTACCCGCATGGCGCAAGCGGAGTCACCTAGTGCAG”, the binding signal was 9180 fluorescence intensity (a.u.). To “GGCATTTGGGTGTTATGCATGCCGGCCGGCCCGTACGTACCGGAGTCACCTAGTGCAG” belongs 11700 fluorescence intensity (a.u.); to “AACCCAAGTTTCATCTTTCTTCCACATCTCCCAACTCTCGCGGAGTCACCTAGTGCAG”, 8990 fluorescence intensity (a.u.); to “AAATATATTTATAGCTGTCTTATAGTCTACTATTGTACCTCGGAGTCACCTAGTGCAG”, 8560 fluorescence intensity (a.u.). In the case of “TACAATTTTGTTTTTGACAACTTTTTCACATGAGTTCATTCGGAGTCACCTAGTGCAG”, the binding signal is 8270 fluorescence intensity (a.u.).

“CACTAATTCCATTTCGCCGTTACGCCAAACTTGGACAAACCGGAGTCACCTAGTGCAG”: the binding signal was 9900 fluorescence intensity (a.u.).

For “ATATGGCAAGGTTGGATCAGTCATTTCGGCATGGCCATTTCGGAGTCACCTAGTGCAG”, the binding signal is 8080 fluorescence intensity (a.u.). Regarding “CTCTCTCTCTCTCTATCCATCATCTCCTCCTCTGCTTTTTCGGAGTCACCTAGTGCAG”, the binding signal was 10200 fluorescence intensity (a.u.).

In the case of “ACCCCGCTCGCCGCGGCCGACCCGCTCGTCCACGACCTCCCGGAGTCACCTAGTGCAG”, the binding signal is 8260 fluorescence intensity (a.u.). To “GGTTTTGTGTGTTTTATGTTACGGAAGTACGGAACCAAGACGGAGTCACCTAGTGCAG” belongs 9300 fluorescence intensity (a.u.). With “GTTAACCATATTTTTTTACTGTTTAAACATTTTTATTTTTCGGAGTCACCTAGTGCAG”, the binding signal is 10300 fluorescence intensity (a.u.).

For “CAGTGCTAATCTGCGCTTCTCTTATTCTCATGTGGTGTGACGGAGTCACCTAGTGCAG”, the binding signal was 8880 fluorescence intensity (a.u.). Take “CAGGGTTTGGATGTGGATATGGTTTCTTCAAGGGTATTTTCGGAGTCACCTAGTGCAG”: the binding signal is 16400 fluorescence intensity (a.u.). Regarding “GCAATCGTCTAAAATATGCATGTACATATGATGTCCTAGTCGGAGTCACCTAGTGCAG”, the binding signal is 8660 fluorescence intensity (a.u.). For “CAACTATGGGTTTTTCCTACTGCCGATTATTGAGCTTATCCGGAGTCACCTAGTGCAG”, the binding signal is 8900 fluorescence intensity (a.u.). For “CTACTCCATCTGCTGTTGCTGTTGCTGTTGCCCATCGTCTCGGAGTCACCTAGTGCAG”, the binding signal is 14000 fluorescence intensity (a.u.).

Turning to “CGTTATTTGTATTTTAGCCAGTTTTTAAGTTCGTTCGCTTCGGAGTCACCTAGTGCAG”, the binding signal was 8020 fluorescence intensity (a.u.). With “GGTCCGGTCGGCCGTTAATTAATATACTTATACGTACTCCCGGAGTCACCTAGTGCAG”, the binding signal is 8260 fluorescence intensity (a.u.). With “AACACCCCAACAAGTTTGTTTGCTTGCTCGCACGCTTGCTCGGAGTCACCTAGTGCAG” the figure was 8790 fluorescence intensity (a.u.). “CCACTACCAGTCCATTTCCACTCTCGGCGTCGGGGCCCCACGGAGTCACCTAGTGCAG”: the binding signal is 9430 fluorescence intensity (a.u.).

As to “AACGTCTTCACCTGTTGCAATGCACGAGCATTTTTTTCTACGGAGTCACCTAGTGCAG”, the binding signal was 11800 fluorescence intensity (a.u.). As to “GCACCTGGGACCGCGTGCGTGCGGGCGGGCGGGCGGGCGGCGGAGTCACCTAGTGCAG”, the binding signal is 13800 fluorescence intensity (a.u.). With “ATGTTCTTATTATTCTAATTAATTTTGATTTTCCTACATACGGAGTCACCTAGTGCAG” the figure was 8540 fluorescence intensity (a.u.); with “TCCGCTTCTGCTATCTCTCGTCACTCTTCAGTCTTCACCTCGGAGTCACCTAGTGCAG”, 8050 fluorescence intensity (a.u.). Take “GGTTGTTTGCATTAGTCTATCTAGGTTGGTATGAGATCTTCGGAGTCACCTAGTGCAG”: the binding signal was 9120 fluorescence intensity (a.u.). With “AGTATTTATTTAGGGGTTTCTTCGTCACTTTTTTGTAAAACGGAGTCACCTAGTGCAG” the figure was 10400 fluorescence intensity (a.u.); with “ACCATATATTTCGACTACTCTCTTTATAATCTATTCTTATCGGAGTCACCTAGTGCAG”, 12100 fluorescence intensity (a.u.); with “CTCCGTAAGCTCCAGCCCACTGCCACCGCTGCTCCAGCTACGGAGTCACCTAGTGCAG”, 8250 fluorescence intensity (a.u.).
